Results published in the supplement of paper PMC4604168 (melanoma cell lines).
The other results are listed elsewhere or left out. Repeats are few or missing, and single values can be far off.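 The apoptosis fraction was the count of cleaved-PARP antibody-stained nuclei relative to all DNA-stained nuclei, imaged in 1,536-well plates. Screening doses were set so most cells survived, and baseline and induced cleaved-PARP levels vary greatly across cell lines.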

The molecules below were run on COLO800 (assay: cleaved PARP positive nuclei fraction relative to DMSO control; melanoma cells; higher = more apoptosis). Settings: library dose: low library concentration; 72 h.
`COc1ccc(C2=N[C@@H](c3ccc(Cl)cc3)[C@@H](c3ccc(Cl)cc3)N2C(=O)N2CCNC(=O)C2)c(OC(C)C)c1` [Nutlin-3] + CC1(C)NC(=O)N(c2ccc([N+](=O)[O-])c(C(F)(F)F)c2)C1=O [nilutamide] (first compound 0.1 µM, partner dose 1 µM) was tested, and the “cleaved PARP positive nuclei fraction” value was 32.1%.
`Cn1cnc2c(F)c(Nc3ccc(Br)cc3Cl)c(C(=O)NOCCO)cc21` [selumetinib] + O=C(CCCCCCC(=O)Nc1ccccc1)NO [vorinostat] (first compound 0.015 µM, partner dose 0.08 µM) was tested, and the “cleaved PARP positive nuclei fraction” value was 40.4%.
`COc1ccc(C2=N[C@@H](c3ccc(Cl)cc3)[C@@H](c3ccc(Cl)cc3)N2C(=O)N2CCNC(=O)C2)c(OC(C)C)c1` [Nutlin-3] + Cc1ccc(NC(=O)c2cccc(N(C)C)c2)cc1NC(=O)c1ccc(O)cc1 [ZM336372] (first compound 0.1 µM, partner dose 2 µM) was tested, and the “cleaved PARP positive nuclei fraction” value was 93%.
For `CS(=O)(=O)c1ccc(C(=O)Nc2ccc(Cl)c(-c3ccccn3)c2)c(Cl)c1` [vismodegib] + O=C(O)c1ccc(-c2c[nH]c3ncc(-c4ccccc4)cc23)cc1C1CCCC1 [GSK650394] (first compound 1 µM, partner dose 0.16 µM), the “cleaved PARP positive nuclei fraction” value was 104%.
In the case of `C[C@]1(O)C[C@@H](c2nc(-c3ccc4ccc(-c5ccccc5)nc4c3)c3c(N)nccn32)C1` + CC(C)(C)c1cnc(CSc2cnc(NC(=O)C3CCNCC3)s2)o1 [SNS-032] (first compound 0.4 µM, partner dose 0.01 µM), the “cleaved PARP positive nuclei fraction” value is reported as 169%.
`CC(=O)O[C@@]12CO[C@@H]1C[C@H](O)[C@@]1(C)C(=O)[C@H](O)C3=C(C)[C@@H](OC(=O)[C@H](O)[C@@H](NC(=O)OC(C)(C)C)c4ccccc4)C[C@@](O)([C@@H](OC(=O)c4ccccc4)[C@H]21)C3(C)C` [Docetaxel] + COc1cc(Nc2ncc(F)c(Nc3ccc4c(n3)NC(=O)C(C)(C)O4)n2)cc(OC)c1OC [Tamatinib] (first compound 0.0001 µM, partner dose 0.4 µM) was tested, and the “cleaved PARP positive nuclei fraction” value was 202%.
With `CS(=O)(=O)c1ccc(C(=O)Nc2ccc(Cl)c(-c3ccccn3)c2)c(Cl)c1` [vismodegib] + CO[C@@H]1[C@H](N(C)C(=O)c2ccccc2)C[C@H]2O[C@]1(C)n1c3ccccc3c3c4c(c5c6ccccc6n2c5c31)C(=O)NC4 [Midostaurin] (first compound 1 µM, partner dose 0.08 µM) the “cleaved PARP positive nuclei fraction” value was 81.5%.
`CC(=O)O[C@@]12CO[C@@H]1C[C@H](O)[C@@]1(C)C(=O)[C@H](O)C3=C(C)[C@@H](OC(=O)[C@H](O)[C@@H](NC(=O)OC(C)(C)C)c4ccccc4)C[C@@](O)([C@@H](OC(=O)c4ccccc4)[C@H]21)C3(C)C` [Docetaxel] + C[C@@H]1CCN(C(=O)CC#N)C[C@@H]1N(C)c1ncnc2[nH]ccc12 [CP690550] (first compound 0.0001 µM, partner dose 1 µM) was tested, and the “cleaved PARP positive nuclei fraction” value was 550%.
With `Cn1cnc2c(F)c(Nc3ccc(Br)cc3Cl)c(C(=O)NOCCO)cc21` [selumetinib] + O=C(Nc1cccc(Cl)c1)Nc1ncc(CCNc2ncnc3ccsc23)s1 [SNS314] (first compound 0.015 µM, partner dose 0.0008 µM) the “cleaved PARP positive nuclei fraction” value was 108%.
In the case of `NC(=O)c1ccc(N(C(N)=O)c2c(F)cccc2F)nc1-c1ccc(F)cc1F` + OCCn1cc(-c2cnc3nnn(Cc4ccc5ncccc5c4)c3n2)cn1 [PF04217903] (first compound 0.4 µM, partner dose 1 µM), the “cleaved PARP positive nuclei fraction” value is reported as 57.8%.
In the case of `CC1(C)CCC(c2ccc(Cl)cc2)=C(CN2CCN(c3ccc(C(=O)NS(=O)(=O)c4ccc(N[C@H](CCN5CCOCC5)CSc5ccccc5)c(S(=O)(=O)C(F)(F)F)c4)cc3)CC2)C1` + CO[C@@H]1[C@H](N(C)C(=O)c2ccccc2)C[C@H]2O[C@]1(C)n1c3ccccc3c3c4c(c5c6ccccc6n2c5c31)C(=O)NC4 [Midostaurin] (first compound 0.4 µM, partner dose 0.08 µM), the “cleaved PARP positive nuclei fraction” value is reported as 124%.

The molecules below were run on COLO829 in the same assay as above. Settings: library dose: low library concentration; 72 h.
With `COc1ccc(C2=N[C@@H](c3ccc(Cl)cc3)[C@@H](c3ccc(Cl)cc3)N2C(=O)N2CCNC(=O)C2)c(OC(C)C)c1` [Nutlin-3] + C=CCn1c(=O)c2cnc(Nc3ccc(N4CCN(C)CC4)cc3)nc2n1-c1cccc(C(C)(C)O)n1 [MK1775] (first compound 0.1 µM, partner dose 0.02 µM) the “cleaved PARP positive nuclei fraction” value was 111%.
In the case of `Cn1sc(=O)n(Cc2ccccc2)c1=O` + CO[C@@H]1[C@H](N(C)C(=O)c2ccccc2)C[C@H]2O[C@]1(C)n1c3ccccc3c3c4c(c5c6ccccc6n2c5c31)C(=O)NC4 [Midostaurin] (first compound 0.4 µM, partner dose 0.08 µM), the “cleaved PARP positive nuclei fraction” value is reported as 112%.
For `Cn1cnc2c(F)c(Nc3ccc(Br)cc3Cl)c(C(=O)NOCCO)cc21` [selumetinib] + Cc1cc(N2CCOCC2)cc2[nH]c(-c3c(NC[C@@H](O)c4cccc(Cl)c4)cc[nH]c3=O)nc12 [BMS536924] (first compound 0.015 µM, partner dose 0.2 µM), the “cleaved PARP positive nuclei fraction” value was 87.1%.
With `CC(=O)O[C@@]12CO[C@@H]1C[C@H](O)[C@@]1(C)C(=O)[C@H](O)C3=C(C)[C@@H](OC(=O)[C@H](O)[C@@H](NC(=O)OC(C)(C)C)c4ccccc4)C[C@@](O)([C@@H](OC(=O)c4ccccc4)[C@H]21)C3(C)C` [Docetaxel] + O=C(CCCCCCC(=O)Nc1ccccc1)NO [vorinostat] (first compound 0.0001 µM, partner dose 0.08 µM) the “cleaved PARP positive nuclei fraction” value was 160%.
`C[C@]1(O)C[C@@H](c2nc(-c3ccc4ccc(-c5ccccc5)nc4c3)c3c(N)nccn32)C1` + CO[C@@H]1[C@H](N(C)C(=O)c2ccccc2)C[C@H]2O[C@]1(C)n1c3ccccc3c3c4c(c5c6ccccc6n2c5c31)C(=O)NC4 [Midostaurin] (first compound 0.4 µM, partner dose 0.08 µM) was tested, and the “cleaved PARP positive nuclei fraction” value was 33.2%.
`CS(=O)(=O)c1ccc(C(=O)Nc2ccc(Cl)c(-c3ccccn3)c2)c(Cl)c1` [vismodegib] + NC(=O)Nc1cc(-c2cccc(F)c2)sc1C(=O)N[C@H]1CCCNC1 [AZD7762] (first compound 1 µM, partner dose 0.02 µM) was tested, and the “cleaved PARP positive nuclei fraction” value was 142%.
For `CC(=O)O[C@@]12CO[C@@H]1C[C@H](O)[C@@]1(C)C(=O)[C@H](O)C3=C(C)[C@@H](OC(=O)[C@H](O)[C@@H](NC(=O)OC(C)(C)C)c4ccccc4)C[C@@](O)([C@@H](OC(=O)c4ccccc4)[C@H]21)C3(C)C` [Docetaxel] + CO[C@@H]1[C@H](N(C)C(=O)c2ccccc2)C[C@H]2O[C@]1(C)n1c3ccccc3c3c4c(c5c6ccccc6n2c5c31)C(=O)NC4 [Midostaurin] (first compound 0.0001 µM, partner dose 0.08 µM), the “cleaved PARP positive nuclei fraction” value was 170%.
`CC(=O)O[C@@]12CO[C@@H]1C[C@H](O)[C@@]1(C)C(=O)[C@H](O)C3=C(C)[C@@H](OC(=O)[C@H](O)[C@@H](NC(=O)OC(C)(C)C)c4ccccc4)C[C@@](O)([C@@H](OC(=O)c4ccccc4)[C@H]21)C3(C)C` [Docetaxel] + Cc1ccc(NC(=O)c2cccc(N(C)C)c2)cc1NC(=O)c1ccc(O)cc1 [ZM336372] (first compound 0.0001 µM, partner dose 2 µM) was tested, and the “cleaved PARP positive nuclei fraction” value was 503%.
For `Cn1sc(=O)n(Cc2ccccc2)c1=O` + NC(=O)Nc1cc(-c2cccc(F)c2)sc1C(=O)N[C@H]1CCCNC1 [AZD7762] (first compound 0.4 µM, partner dose 0.02 µM), the “cleaved PARP positive nuclei fraction” value was 113%.
`C[C@@H](N)c1ccc(C(=O)Nc2ccnc3[nH]ccc23)cc1` + O=C(O)c1ccc(-c2c[nH]c3ncc(-c4ccccc4)cc23)cc1C1CCCC1 [GSK650394] (first compound 0.4 µM, partner dose 0.16 µM) was tested, and the “cleaved PARP positive nuclei fraction” value was 78.1%.
In the case of `NC1(c2ccc(-c3nc4ccn5c(=O)[nH]nc5c4cc3-c3ccccc3)cc2)CCC1` + NC(=O)Nc1cc(-c2cccc(F)c2)sc1C(=O)N[C@H]1CCCNC1 [AZD7762] (first compound 0.4 µM, partner dose 0.02 µM), the “cleaved PARP positive nuclei fraction” value is reported as 108%.
In the case of `COc1ccc(C2=N[C@@H](c3ccc(Cl)cc3)[C@@H](c3ccc(Cl)cc3)N2C(=O)N2CCNC(=O)C2)c(OC(C)C)c1` [Nutlin-3] + COc1cc2c(Oc3ccc4[nH]c(C)cc4c3F)ncnc2cc1OCCCN1CCCC1 [cediranib] (first compound 0.1 µM, partner dose 0.4 µM), the “cleaved PARP positive nuclei fraction” value is reported as 107%.
`Cn1cnc2c(F)c(Nc3ccc(Br)cc3Cl)c(C(=O)NOCCO)cc21` [selumetinib] + CC1(C)NC(=O)N(c2ccc([N+](=O)[O-])c(C(F)(F)F)c2)C1=O [nilutamide] (first compound 0.015 µM, partner dose 1 µM) was tested, and the “cleaved PARP positive nuclei fraction” value was 132%.
In the case of `NC(=O)c1ccc(N(C(N)=O)c2c(F)cccc2F)nc1-c1ccc(F)cc1F` + Cc1ccc(NC(=O)c2cccc(N(C)C)c2)cc1NC(=O)c1ccc(O)cc1 [ZM336372] (first compound 0.4 µM, partner dose 2 µM), the “cleaved PARP positive nuclei fraction” value is reported as 89.3%.
In the case of `CC1(C)CCC(c2ccc(Cl)cc2)=C(CN2CCN(c3ccc(C(=O)NS(=O)(=O)c4ccc(N[C@H](CCN5CCOCC5)CSc5ccccc5)c(S(=O)(=O)C(F)(F)F)c4)cc3)CC2)C1` + CN(NC(=O)CC(=O)NN(C)C(=S)c1ccccc1)C(=S)c1ccccc1 [STA4783] (first compound 0.4 µM, partner dose 0.006 µM), the “cleaved PARP positive nuclei fraction” value is reported as 256%.
